Results taken from patent US20190055283A1 (OHIO STATE INNOVATION FOUNDATION, priority 2016, published 2019).

Assay: general procedure: solution-phase peptide synthesis
Conditions: late stage modification step

| Substance | step yield |
| --- | --- |
| Cbz-Asp(OtBu)-Glu(OtBu)-Val-AAsp(OtBu)-COBn | 18% yield |
| Cbz-Asp(OtBu)-Glu(OtBu)-Val-AAsp(OtBu)-COMe | 29% yield |
| Cbz-Asp-Glu-Val-AAsp-COBn | 95% |
| Cbz-Asp-Glu-Val-AAsp-COH | 10% |
| Cbz-Asp-Glu-Val-AAsp-COMe | 95% yield |
